Results as given in publication PMC10599731.
No constants are given. Whether binding was seen depends on the method and setting. In cells and extracts the contact can be indirect.

The chains behind the UniProt entries cited, without tags or fusion partners.
UniProt Q9WTL8: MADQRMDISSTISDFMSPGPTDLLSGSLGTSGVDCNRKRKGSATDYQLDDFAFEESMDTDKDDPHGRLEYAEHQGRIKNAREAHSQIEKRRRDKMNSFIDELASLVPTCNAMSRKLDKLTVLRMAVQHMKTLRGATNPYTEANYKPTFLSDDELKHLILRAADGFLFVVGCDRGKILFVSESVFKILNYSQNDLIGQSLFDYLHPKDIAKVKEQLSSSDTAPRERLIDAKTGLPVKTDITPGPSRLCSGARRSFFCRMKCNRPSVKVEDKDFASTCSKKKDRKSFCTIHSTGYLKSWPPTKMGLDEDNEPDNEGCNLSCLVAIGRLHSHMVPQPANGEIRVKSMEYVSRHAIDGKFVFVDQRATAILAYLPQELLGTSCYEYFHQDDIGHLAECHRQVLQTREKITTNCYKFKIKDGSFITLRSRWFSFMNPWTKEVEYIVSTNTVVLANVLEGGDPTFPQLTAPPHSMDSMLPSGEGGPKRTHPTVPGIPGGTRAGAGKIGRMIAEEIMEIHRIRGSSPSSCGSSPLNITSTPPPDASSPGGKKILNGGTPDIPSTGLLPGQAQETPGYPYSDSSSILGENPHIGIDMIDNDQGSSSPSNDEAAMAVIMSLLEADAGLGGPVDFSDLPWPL
UniProt P05627: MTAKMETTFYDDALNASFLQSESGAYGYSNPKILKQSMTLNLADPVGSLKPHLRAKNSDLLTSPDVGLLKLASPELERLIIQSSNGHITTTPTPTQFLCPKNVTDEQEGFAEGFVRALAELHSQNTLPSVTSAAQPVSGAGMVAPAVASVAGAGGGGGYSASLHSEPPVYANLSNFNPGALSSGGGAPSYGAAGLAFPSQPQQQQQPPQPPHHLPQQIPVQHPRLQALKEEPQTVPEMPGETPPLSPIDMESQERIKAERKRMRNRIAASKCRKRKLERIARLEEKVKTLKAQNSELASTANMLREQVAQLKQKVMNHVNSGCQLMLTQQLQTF

Target: BMAL1 (mouse (endogenous in mouse adult fibroblasts)) (UniProt Q9WTL8)
Assay: co-IP; BMAL1 immunoprecipitated (Dynabeads Protein G kit) from total protein extracts of control and senescent mouse adult fibroblasts collected 12 hours post-synchronization; half of the samples DNase digested (TURBO DNase, 6 U); flow through and elution blotted for c-Jun

binding: no binding
Substance: c-Jun (from UniProt P05627 1-334)
